# Laboratory results published in the supplement of paper PMC3334620.
# In all, about 33,000 sequences were measured (“E-score (-0.5 to 0.5)”: median about -0.015, highest 2% from about 0.3 on). The list shows a part of the results.
# Biological target: T1, Abf1 (UniProt P14164)
# T1 sequence: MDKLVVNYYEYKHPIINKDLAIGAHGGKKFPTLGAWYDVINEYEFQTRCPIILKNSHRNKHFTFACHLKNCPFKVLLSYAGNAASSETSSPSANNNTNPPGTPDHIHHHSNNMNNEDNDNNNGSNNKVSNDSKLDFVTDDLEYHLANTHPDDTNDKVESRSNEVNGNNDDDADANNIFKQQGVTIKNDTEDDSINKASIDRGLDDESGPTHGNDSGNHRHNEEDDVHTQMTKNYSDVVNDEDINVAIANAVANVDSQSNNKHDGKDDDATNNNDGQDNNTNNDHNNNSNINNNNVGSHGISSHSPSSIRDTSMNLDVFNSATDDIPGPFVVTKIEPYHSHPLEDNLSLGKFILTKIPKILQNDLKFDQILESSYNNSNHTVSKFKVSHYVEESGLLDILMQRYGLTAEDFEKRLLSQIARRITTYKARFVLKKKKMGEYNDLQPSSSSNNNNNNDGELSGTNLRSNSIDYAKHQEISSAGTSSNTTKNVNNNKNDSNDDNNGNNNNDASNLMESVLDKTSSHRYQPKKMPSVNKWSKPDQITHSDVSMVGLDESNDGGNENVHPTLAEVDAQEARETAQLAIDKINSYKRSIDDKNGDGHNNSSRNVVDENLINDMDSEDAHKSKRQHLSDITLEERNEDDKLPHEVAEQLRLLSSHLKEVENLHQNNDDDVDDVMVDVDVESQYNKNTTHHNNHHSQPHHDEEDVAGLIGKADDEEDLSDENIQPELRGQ
# Assay: PBM E-score (8-mer binding enrichment) (E-score (-0.5 to 0.5)); higher = stronger / more preferred TF binding
# Conditions: protein concentration: 200 nM; construct: GST-full length
# Summary of the method: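 E-scores (a modified Wilcoxon-Mann-Whitney statistic) were assigned by the Universal PBM Analysis Suite to every ungapped eight-base word pooled with its reverse complement. The input came from universal all-10-mer Agilent arrays made double-stranded by primer extension and probed with GST-tagged yeast transcription factors at about 100-200 nM. Fluorescent anti-GST detected bound protein, and masliner normalised the scans.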
row,Sequence,PBM E-score
1,CATCTGTA,0.0105
2,AGGTACAG,-0.104
3,CGTCTGGC,0.0925
4,CTACGCAG,-0.144
5,AGGCTCCG,0.134
6,CCGGCAGC,-0.0671
7,ATACACAA,-0.0352
8,AAACGGGG,0.0143
9,GCTGTAAA,-0.0536
10,ATCGCAGC,-0.0387
11,ACGAAGGG,0.136
12,TACTTTCA,0.132
13,CCGTCACA,0.195
14,CAATCGTC,0.102
15,CTTACATA,0.104
16,ACGTAGGC,0.043
17,AGATACCG,0.0833
18,ACCTTAGG,-0.159
19,GGCGTTAC,-0.0613
20,AGCGGAGG,-0.298
21,CTTGGCTC,-0.216
22,AAAGCTCT,-0.186
23,AACCTATC,-0.0842
24,GAATCACA,0.0513
25,CCCCCTTA,-0.439

# Part of the list above, reformatted.
row	Sequence	PBM E-score
15	CTTACATA	0.104
16	ACGTAGGC	0.043
17	AGATACCG	0.0833
18	ACCTTAGG	-0.159
19	GGCGTTAC	-0.0613

# Following part

row,Sequence,PBM E-score
1,AGCTTGAC,-0.245
2,CCCTACTC,-0.144
3,AATCTACA,0.0424
4,AGTGACAC,0.382
5,CGCTTAAC,0.0568
6,CAGACGAG,0.151
7,ATTCGCGC,0.0983
8,CCGTCGTC,0.161
9,GGGCCACA,-0.138
10,CCGCGCAG,-0.0355
11,CCGTATCG,0.256
12,AAGGTCCA,0.0292
13,GTGTTGAA,0.123
14,ATTGAATG,-0.0546
15,GACCGATC,-0.163
16,CGCAGACG,0.0261
17,CAAGTACG,0.105
18,ATCCTGCA,0.0251
19,AGTCCTCA,-0.086
20,CATAGGTC,-0.0589
21,GGGCCCCA,-0.295
22,AGAAGCCC,-0.16
23,AAAAGTGG,0.0942
24,ACAATGTC,0.226
25,CCCTGCGG,-0.315

row,Sequence,PBM E-score
1,AACACTCT,-0.0602
2,ATTACTCA,0.0171
3,ACTATGCC,0.0958
4,AGTACTAT,0.129
5,CCAAATGC,-0.223
6,CGCTATAA,-0.0302
7,TCGGGTCA,-0.0674
8,AGCCAGTG,0.151
9,AAGCGTGT,-0.0259
10,ATCCGCCG,2e-05
11,AGTTGTTA,0.06
12,CGAGACGC,-0.0479
13,AATACATT,0.112
14,AGTTAACC,-0.0201
15,AGGAGCAT,-0.0588
16,CACTTGAA,-0.0514
17,AAACGCTT,-0.0985
18,TCTTAACA,0.129
19,CGCATAGA,0.00565
20,ACAGGCAC,-0.118
21,CAGTCAAA,-0.0295
22,TATGGCGA,-0.0381
23,CCCGATGA,0.0915
24,ATAGAGAA,-0.0045
25,CAATGCAG,-0.0393

row,Sequence,PBM E-score
1,AGATAAGA,0.194
2,AGCGCAGC,-0.241
3,CTTACAGA,-0.069
4,CTAATCGA,0.0457
5,AATACCGA,-0.0516
6,ACTCTGAA,-0.0391
7,CGTGACTA,0.269
8,AGTCCACA,-0.0724
9,AGCGCCTC,-0.266
10,CACTTCCA,0.00893
11,ACAGTATG,0.0512
12,CATATAAC,0.155
13,ACCCCACT,-0.13
14,CGGGTTCA,-0.0588
15,AAGCACAG,-0.0627
16,AACATTAT,0.066
17,CAGATGTA,0.0309
18,AAATGTAT,0.152
19,CAAGCCGA,0.0899
20,GGTCTTCA,-0.0846
21,TCTAGCCA,0.0826
22,CCCTTCGC,-0.16
23,ACTCCGGG,0.0329
24,GGGGATAA,0.0264
25,AAAGCAAC,0.00349

row,Sequence,PBM E-score
1,AACAGTCG,0.0359
2,CGCTACTA,0.105
3,GCCAAGTA,-0.151
4,GACAATGA,-0.00952
5,ATCATATC,0.276
6,ATAGAGAT,0.0356
7,GAGTGCCA,-0.212
8,GCAGCCGA,-0.112
9,GCGCTGTA,-0.132
10,GCACGAAA,0.336
11,ATTCGTGA,0.15
12,ACATTGCG,0.119
13,AACACCCA,-0.274
14,AAATATAT,0.125
15,AACAACCG,0.0667
16,ATCAACGA,0.224
17,CAGGACAC,-0.127
18,TATAATCA,0.281
19,CAAGAATC,0.145
20,CGCAAAAA,-0.0831
21,TGCTGACA,0.0722
22,CGGATGTA,-0.199
23,AGGAGGCA,-0.229
24,GAATCGCC,-0.0976
25,TTGGTAAA,0.0251

row,Sequence,PBM E-score
1,AGGCTTCC,-0.198
2,CCCGTGAA,0.131
3,TGATCTAA,0.244
4,GTAGAAAA,0.169
5,GGTCTGAA,0.0869
6,AGCCGATA,-0.0881
7,ACTTACGG,0.196
8,ATGAGGCC,-0.104
9,GCTGTGGA,0.0882
10,ACAGACGG,0.0841
11,AAATGGCC,0.0293
12,CTTGACTC,-0.124
13,CCGGGCCC,-0.124
14,AGTACCAA,0.173
15,AGCACGTC,0.106
16,ACGGCGGA,0.0744
17,CAAAGGGA,0.0101
18,TGCGTTAA,0.108
19,CAAATTCC,0.0741
20,CCATAGAA,-0.21
21,CACGGTTA,0.199
22,GTATCACA,0.24
23,TTACAGAA,-0.0816
24,AACATCAC,0.283
25,GGAATCGA,-0.197

row,Sequence,PBM E-score
1,AGTCGTGG,0.0697
2,GAACAAAC,0.0209
3,ATACACAC,0.0494
4,CGATAGTA,-0.0157
5,CGATTGAA,-0.0852
6,AGGCCACG,-0.135
7,TAGCGCGA,0.179
8,CTGTTTGC,0.0145
9,CTACATGA,0.0313
10,ATTGTTCA,0.0589
11,CTAGGCGA,-0.111
12,GACTTTAC,-0.0271
13,AGCGTTAA,-0.0696
14,ACGTGTTA,0.113
15,AGATAGCA,-0.0558
16,AGAAGGAA,-0.278
17,ACGGGAAC,-0.0402
18,AGGTTTCA,0.0143
19,ACTGAGTG,0.0323
20,GAAGTGTC,0.00769
21,CCTGCTGC,-0.149
22,ACTAAGCA,0.109

# 4 records drawn at random from the list so far, as already listed:
row,Sequence,PBM E-score
22,ACTAAGCA,0.109
5,CGATTGAA,-0.0852
16,AGAAGGAA,-0.278
14,ACGTGTTA,0.113
